Source: PMC5428335
No constants are given. Whether binding was seen depends on the method and setting. Binding seen in cells or lysates may run through a third protein. Some binding calls cover weakened binding; strength is not graded here. Blank lines part the entries; values can stand above or below the molecule they belong to.

Protein sequences, listed by entry. Tags and fused reporters are not part of them.
UniProt Q8IY31: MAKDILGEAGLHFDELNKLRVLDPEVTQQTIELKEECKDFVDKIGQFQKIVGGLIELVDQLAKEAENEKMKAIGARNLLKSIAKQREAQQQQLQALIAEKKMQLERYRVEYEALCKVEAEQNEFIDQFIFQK
UniProt Q99996: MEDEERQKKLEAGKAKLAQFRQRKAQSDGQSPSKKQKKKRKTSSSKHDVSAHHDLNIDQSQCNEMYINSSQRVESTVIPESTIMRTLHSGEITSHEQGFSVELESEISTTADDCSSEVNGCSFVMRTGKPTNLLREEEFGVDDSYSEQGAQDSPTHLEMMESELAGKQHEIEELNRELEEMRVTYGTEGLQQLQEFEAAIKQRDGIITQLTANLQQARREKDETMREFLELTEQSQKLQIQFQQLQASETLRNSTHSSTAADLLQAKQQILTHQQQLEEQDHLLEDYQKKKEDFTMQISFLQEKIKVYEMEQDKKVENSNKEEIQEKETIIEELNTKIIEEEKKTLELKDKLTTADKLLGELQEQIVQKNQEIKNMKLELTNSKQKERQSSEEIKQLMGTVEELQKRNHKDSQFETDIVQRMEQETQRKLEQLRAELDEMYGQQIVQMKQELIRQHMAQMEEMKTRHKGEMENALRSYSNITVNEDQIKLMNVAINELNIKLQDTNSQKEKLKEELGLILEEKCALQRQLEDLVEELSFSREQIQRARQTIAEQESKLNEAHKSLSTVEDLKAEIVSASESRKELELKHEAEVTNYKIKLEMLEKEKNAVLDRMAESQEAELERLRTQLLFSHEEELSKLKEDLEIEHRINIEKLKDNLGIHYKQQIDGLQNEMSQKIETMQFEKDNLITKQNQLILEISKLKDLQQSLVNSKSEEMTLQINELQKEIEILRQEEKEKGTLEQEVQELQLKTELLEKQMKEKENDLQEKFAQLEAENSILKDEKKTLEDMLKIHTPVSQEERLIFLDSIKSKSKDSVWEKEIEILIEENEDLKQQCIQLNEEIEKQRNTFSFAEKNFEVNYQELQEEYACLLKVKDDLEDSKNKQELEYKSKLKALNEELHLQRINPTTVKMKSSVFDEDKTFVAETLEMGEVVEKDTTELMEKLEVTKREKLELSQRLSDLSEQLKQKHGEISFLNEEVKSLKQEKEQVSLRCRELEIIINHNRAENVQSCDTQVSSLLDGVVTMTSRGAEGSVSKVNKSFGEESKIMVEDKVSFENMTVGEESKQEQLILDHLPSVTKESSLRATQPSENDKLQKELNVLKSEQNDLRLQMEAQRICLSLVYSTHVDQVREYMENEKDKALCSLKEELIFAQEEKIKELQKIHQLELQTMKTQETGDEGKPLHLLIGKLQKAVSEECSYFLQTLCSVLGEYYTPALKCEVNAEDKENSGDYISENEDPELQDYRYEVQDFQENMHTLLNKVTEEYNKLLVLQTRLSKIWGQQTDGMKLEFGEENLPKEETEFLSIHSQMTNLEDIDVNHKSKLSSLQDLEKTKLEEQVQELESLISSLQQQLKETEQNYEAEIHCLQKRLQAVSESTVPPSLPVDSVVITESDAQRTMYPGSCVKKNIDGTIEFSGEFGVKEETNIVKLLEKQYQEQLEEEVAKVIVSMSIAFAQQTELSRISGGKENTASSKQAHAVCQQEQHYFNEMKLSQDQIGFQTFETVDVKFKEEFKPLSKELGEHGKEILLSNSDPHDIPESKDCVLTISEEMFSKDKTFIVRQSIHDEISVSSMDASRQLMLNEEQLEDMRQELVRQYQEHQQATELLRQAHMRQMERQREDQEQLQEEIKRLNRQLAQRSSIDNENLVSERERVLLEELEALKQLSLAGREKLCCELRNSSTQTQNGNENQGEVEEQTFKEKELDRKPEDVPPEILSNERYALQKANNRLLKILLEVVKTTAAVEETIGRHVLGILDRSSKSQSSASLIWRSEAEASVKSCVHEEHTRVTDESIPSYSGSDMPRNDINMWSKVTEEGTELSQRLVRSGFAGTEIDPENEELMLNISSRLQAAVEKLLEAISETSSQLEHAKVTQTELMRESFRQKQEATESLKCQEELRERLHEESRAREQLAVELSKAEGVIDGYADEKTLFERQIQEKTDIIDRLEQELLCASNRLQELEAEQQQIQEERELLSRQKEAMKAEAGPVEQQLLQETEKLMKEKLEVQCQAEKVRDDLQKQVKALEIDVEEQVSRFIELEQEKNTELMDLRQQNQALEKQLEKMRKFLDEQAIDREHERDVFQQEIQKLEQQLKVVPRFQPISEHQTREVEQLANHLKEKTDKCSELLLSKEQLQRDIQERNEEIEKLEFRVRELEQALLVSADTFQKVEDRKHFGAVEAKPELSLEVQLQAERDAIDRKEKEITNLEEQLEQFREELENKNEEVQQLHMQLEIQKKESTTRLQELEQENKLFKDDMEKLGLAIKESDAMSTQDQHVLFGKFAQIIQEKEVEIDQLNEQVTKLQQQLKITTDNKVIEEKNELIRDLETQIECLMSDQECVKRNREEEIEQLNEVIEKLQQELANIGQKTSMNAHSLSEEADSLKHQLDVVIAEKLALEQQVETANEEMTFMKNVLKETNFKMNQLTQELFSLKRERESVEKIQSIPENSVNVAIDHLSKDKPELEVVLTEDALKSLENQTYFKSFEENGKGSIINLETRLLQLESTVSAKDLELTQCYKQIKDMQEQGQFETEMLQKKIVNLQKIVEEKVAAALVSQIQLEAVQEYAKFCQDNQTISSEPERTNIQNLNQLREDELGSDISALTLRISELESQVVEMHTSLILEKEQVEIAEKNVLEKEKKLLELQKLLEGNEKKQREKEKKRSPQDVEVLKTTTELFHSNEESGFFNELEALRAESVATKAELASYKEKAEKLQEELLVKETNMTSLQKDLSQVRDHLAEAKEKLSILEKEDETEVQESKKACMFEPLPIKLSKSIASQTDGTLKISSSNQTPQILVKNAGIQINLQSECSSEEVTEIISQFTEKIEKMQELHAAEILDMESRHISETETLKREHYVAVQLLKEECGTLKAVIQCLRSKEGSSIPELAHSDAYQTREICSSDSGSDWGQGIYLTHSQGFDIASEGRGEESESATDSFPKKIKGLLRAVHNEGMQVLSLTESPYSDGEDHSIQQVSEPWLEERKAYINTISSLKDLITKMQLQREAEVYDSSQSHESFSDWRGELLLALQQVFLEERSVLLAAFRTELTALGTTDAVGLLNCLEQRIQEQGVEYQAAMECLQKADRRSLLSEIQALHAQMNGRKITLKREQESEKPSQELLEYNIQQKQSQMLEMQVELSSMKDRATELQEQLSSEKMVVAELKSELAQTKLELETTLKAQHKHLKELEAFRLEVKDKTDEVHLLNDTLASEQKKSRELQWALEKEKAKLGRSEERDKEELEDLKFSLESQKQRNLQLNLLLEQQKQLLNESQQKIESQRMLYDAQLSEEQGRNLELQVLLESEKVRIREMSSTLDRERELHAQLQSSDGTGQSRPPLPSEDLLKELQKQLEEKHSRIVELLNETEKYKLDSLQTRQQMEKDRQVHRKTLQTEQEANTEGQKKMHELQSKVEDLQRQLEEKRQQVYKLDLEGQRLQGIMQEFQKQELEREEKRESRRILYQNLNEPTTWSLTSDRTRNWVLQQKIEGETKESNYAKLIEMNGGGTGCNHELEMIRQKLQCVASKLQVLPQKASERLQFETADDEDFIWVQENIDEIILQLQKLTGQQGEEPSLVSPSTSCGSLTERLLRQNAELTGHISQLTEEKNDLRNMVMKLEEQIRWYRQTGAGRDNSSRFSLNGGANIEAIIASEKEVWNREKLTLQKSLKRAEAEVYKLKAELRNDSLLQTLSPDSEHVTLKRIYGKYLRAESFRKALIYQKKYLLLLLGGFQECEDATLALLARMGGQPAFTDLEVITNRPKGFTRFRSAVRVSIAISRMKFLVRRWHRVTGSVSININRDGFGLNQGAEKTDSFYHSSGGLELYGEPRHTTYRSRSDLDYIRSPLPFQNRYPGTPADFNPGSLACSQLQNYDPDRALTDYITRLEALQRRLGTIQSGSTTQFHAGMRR

Key:
[1] = molecular target: intraflagellar transport 20 (IFT20) (human (endogenous in SaOS2)) (UniProt Q8IY31); assay: proximity ligation; in situ PLA (Duolink kit) in fixed SaOS2 cells with anti-IFT20 and anti-AKAP450 or anti-GM130 antibodies; si-IFT20 as control
[2] = molecular target: intraflagellar transport 20 (IFT20) (human (endogenous in SaOS2)) (UniProt Q8IY31); assay: co-IP; SaOS2 whole-cell lysates (50 mM Tris-HCl pH 7.5, 150 mM NaCl, 5 mM EDTA, 0.5% NP-40; briefly sonicated) immunoprecipitated with anti-IFT20 antibody or Ctrl IgG; Western blotting

binding [1]: binds
binding [2]: binds
Molecule: AKAP450 (from UniProt Q99996 1-3907)

binding [1]: binds
binding [2]: binds
B1: GM130 (protein, UniProt Q08379 1-1002)
chain: MWPQPRLPPRPAMSEETRQSKLAAAKKKLREYQQRNSPGVPTGAKKKKKIKNGSNPETTTSGGCHSPEDTPKDNAATLQPSDDTVLPGGVPSPGASLTSMAASQNHDADNVPNLMDETKTFSSTESLRQLSQQLNGLVCESATCVNGEGPASSANLKDLESRYQQLAVALDSSYVTNKQLNITIEKLKQQNQEITDQLEEEKKECHQKQGALREQLQVHIQTIGILVSEKAELQTALAHTQHAARQKEGESEDLASRLQYSRRRVGELERALSAVSTQQKKADRYNKELTKERDALRLELYKNTQSNEDLKQEKSELEEKLRVLVTEKAGMQLNLEELQKKLEMTELLLQQFSSRCEAPDANQQLQQAMEERAQLEAHLGQVMESVRQLQMERDKYAENLKGESAMWRQRMQQMSEQVHTLREEKECSMSRVQELETSLAELRNQMAEPPPPEPPAGPSEVEQQLQAEAEHLRKELEGLAGQLQAQVQDNEGLSRLNREQEERLLELERAAELWGEQAEARRQILETMQNDRTTISRALSQNRELKEQLAELQSGFVKLTNENMEITSALQSEQHVKRELGKKLGELQEKLSELKETVELKSQEAQSLQQQRDQYLGHLQQYVAAYQQLTSEKEVLHNQLLLQTQLVDQLQQQEAQGKAVAEMARQELQETQERLEAATQQNQQLRAQLSLMAHPGEGDGLDREEEEDEEEEEEEAVAVPQPMPSIPEDLESREAMVAFFNSAVASAEEEQARLRGQLKEQRVRCRRLAHLLASAQKEPEAAAPAPGTGGDSVCGETHRALQGAMEKLQSRFMELMQEKADLKERVEELEHRCIQLSGETDTIGEYIALYQSQRAVLKERHREKEEYISRLAQDKEEMKVKLLELQELVLRLVGDRNEWHGRFLAAAQNPADEPTSGAPAPQELGAANQQGDLCEVSLAGSVEPAQGEAREGSPRDNPTAQQIMQLLREMQNPRERPGLGSNPCIPFFYRADENDEVKITVI
